Source: PubChem BioAssay AID1259424 (University of Nebraska Medical Center, 2018)
Test: 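Rank knockdowns across the genome by resemblance to the KSR1 depletion profile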 (primary screen). Cells: human HCT116 colon cancer cells. Reagents: siRNA pool against human genes, 50 nM. Read-out: 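Six signature mRNAs by branched-DNA multiplex assay, scaled to two housekeeping genes and non-targeting median, log2; matched to mean KSR1 knockdown profile by Pearson correlation and euclidean distance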. Direction: mean correlation with KSR1 profile: higher = expression change more like KSR1 knockdown; mean distance from KSR1 profile: higher = expression change less like KSR1 knockdown.
The whole screen tested about 14,000 reagents; shown is a part drawn at random. 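Higher correlation or smaller distance means closer resemblance to KSR1 loss; control wells, including KSR1 knockdowns, recur on many plates.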 Not all columns of the deposit are shown. Not stated in the record: the time to read-out.

gene symbol,PubChem SID,mean correlation with KSR1 profile,mean distance from KSR1 profile
NDUFAB1 (NADH:ubiquinone oxidoreductase subunit AB1),SID363995942,-0.0483,1.32
SURF2 (surfeit 2),SID364000326,-0.13,2.7
KIAA1191,SID364001701,0.23,1.52
MC2R (melanocortin 2 receptor),SID363991852,0.905,1.52
"PSMD11 (proteasome 26S subunit, non-ATPase 11)",SID363993971,-0.263,2.55
"TSKU (tsukushi, small leucine rich proteoglycan)",SID363999544,0.181,2.25
PGPEP1 (pyroglutamyl-peptidase I),SID364000463,-0.128,1.41
NCBP1 (nuclear cap binding protein subunit 1),SID363993659,0.738,0.873
HOXA10 (homeobox A10),SID364001278,0.482,2.37
SAFB2 (scaffold attachment factor B2),SID363999010,-0.244,1.13
STRBP (spermatid perinuclear RNA binding protein),SID364001030,-0.00909,1.35
TRERF1 (transcriptional regulating factor 1),SID364004384,0.0396,5.77
XCL2 (X-C motif chemokine ligand 2),SID363994311,0.765,2.23
WDR26 (WD repeat domain 26),SID364003286,-0.367,1.85
ZNF365 (zinc finger protein 365),SID364004998,-0.0526,2.05
LHFPL2 (LHFPL tetraspan subfamily member 2),SID363996659,-0.059,2.31
"RBBP6 (RB binding protein 6, ubiquitin ligase)",SID363997664,-0.144,2.91
MADCAM1 (mucosal vascular addressin cell adhesion molecule 1),SID364004515,0.312,3.36
FAM8A1 (family with sequence similarity 8 member A1),SID363999984,-0.3,1.56
PTHLH (parathyroid hormone like hormone),SID363993976,-0.668,3.17
NOX4 (NADPH oxidase 4),SID364000272,0.0612,2.32
KSR2 (kinase suppressor of ras 2),SID364004834,0.0264,2.12
MYPN (myopalladin),SID364004069,0.153,2.35
"RPRM (reprimo, TP53 dependent G2 arrest mediator homolog)",SID364001451,0.724,1.6
TARBP2 (TARBP2 subunit of RISC loading complex),SID363995182,0.611,1.78
SLC25A23,SID364002752,-0.809,2.57
TAOK3 (TAO kinase 3),SID364000005,0.118,2.05
"NDN (necdin, MAGE family member)",SID363993660,0.763,1.91
ALDH18A1 (aldehyde dehydrogenase 18 family member A1),SID363994016,0.808,1.47
TSC22D1 (TSC22 domain family member 1),SID363996874,0.692,1.74
CHRNA10 (cholinergic receptor nicotinic alpha 10 subunit),SID364001666,0.0258,3.37
RFX1 (regulatory factor X1),SID363994072,0.262,2.22
TMT1A (thiol methyltransferase 1A),SID363998561,0.584,1.28
TM7SF2 (transmembrane 7 superfamily member 2),SID363994392,0.0314,2.26
MED4 (mediator complex subunit 4),SID363998623,-0.579,2.52
SPCS1 (signal peptidase complex subunit 1),SID363998567,-0.314,1.21
WDR77 (WD repeat domain 77),SID364002751,-0.614,1.62
APOH (apolipoprotein H),SID363991381,0.265,1.2
PYROXD1 (pyridine nucleotide-disulphide oxidoreductase domain 1),SID364003112,0.589,1.96
PHC1 (polyhomeotic homolog 1),SID363995408,0.384,1.93
ILK (integrin linked kinase),SID363991338,-0.818,2.27
ILK (integrin linked kinase),SID363995492,0.545,2.05
SLPI (secretory leukocyte peptidase inhibitor),SID363994212,-0.226,2.35
UBE2D2 (ubiquitin conjugating enzyme E2 D2),SID363994455,0.23,2.13
USP22 (ubiquitin specific peptidase 22),SID364005146,-0.0823,2.38
CLEC11A (C-type lectin domain containing 11A),SID363994126,0.858,1.1
LRRC36 (leucine rich repeat containing 36),SID364000953,-0.249,2.3
G6PC2 (glucose-6-phosphatase catalytic subunit 2),SID364002063,0.0352,1.68
TAPBP (TAP binding protein),SID364004810,-0.0985,3.36
HNRNPC (heterogeneous nuclear ribonucleoprotein C),SID363995477,-0.301,3.18
"SMN2 (survival of motor neuron 2, centromeric)",SID364000292,-0.16,1.72
C3orf36 (chromosome 3 putative open reading frame 36),SID364003216,-0.359,2.3
SDF4 (stromal cell derived factor 4),SID363999928,-0.601,1.5
SLC7A10,SID364001454,-0.577,1.46
ZNF91 (zinc finger protein 91),SID363994533,-0.508,2.57
"NT5C3A (5'-nucleotidase, cytosolic IIIA)",SID364000143,0.583,2.05
ECE2 (endothelin converting enzyme 2),SID363999037,0.972,1.43
ECE2 (endothelin converting enzyme 2),SID364003917,-0.179,2.88
RPS13 (ribosomal protein S13),SID363992315,-0.424,3.47
YY1 (YY1 transcription factor),SID363994512,-0.452,3.26
ZNF264 (zinc finger protein 264),SID364005545,-0.142,1.74
CCL25 (C-C motif chemokine ligand 25),SID363996518,0.545,1.62
"LLPH (LLP homolog, long-term synaptic facilitation factor)",SID364003923,0.461,1.99
